This list was built around the results that the source calls inconclusive (neither active nor inactive); the mix of calls is not that of the screen. Where the call is inconclusive, the potency comes from a doubtful curve fit. Active and inactive are the calls of the source. The call rests on the fitted dose curve; in most records, active means well fitted cell-killing curve with a large enough effect; inconclusive means small, poorly fitted or top-dose-only effect, or effect the other way; inactive means no such curve, though single readings can be large or run the other way.
system: PA-1; assay: Confirmatory qHTS for gynecologic anti-cancer compounds from libraries of approved drugs and bioactive compounds; conditions: gynecologic cancer cell panel viability, ATPlite luminescence, 48 h; series mostly up to 57.6 µM; activity change, negative = viability loss: at the top concentration; further: nearly all actives have a fitted effect of over 55% in size
Excerpt: National Center for Advancing Translational Sciences [NCATS] Assay Overview: Chemotherapeutic drug responses vary from cancer to cancer and from patient to patient. These variations could be caused by a number of factors including patient genomic background, tumor mutations, tumor heterogeneity, and aspects of drug treatment. Chemotherapeutic drug resistance is also a common issue and can lead to ineffective treatment and patient death. Here we have profiled the cell killing effects of thousands of compounds to characterize the responses in three gynecological cancers, identify cancer-selective compounds, and understand the diversity of responses to these compounds from pan-cancer suppressors to single cell line selective compounds. In this assay, we screened a 7,914 compound drug library that included approved drug and bioactive compounds in six ovarian, three cervical, and two placental cancer cell lines using the ATPlite assay for cell viability. ATPlite is a luminescence based assay reliant on the conversion of a luciferase substrate to light in the presence of ATP. As a cytotoxic compound will suppress growth and decrease the number of cells, the concentration of ATP will decrease, and less light signal will be detected in the well. Hits were selected from the primary screen for follow-up confirmation. For the confirmation screens, the ovarian cancer cell lines included CAOV-3, SK-OV-3, SW 626, ES-2, PA-1, and TOV-21G. The cervical cancer cell lines included HeLa, Ca Ski, and C-33 A. The placental cancer cell lines included JEG-3 and JAR. HEK 293T cells were used as the control cell line to determine the selectivity index. The ATPlite assay was used to determine the IC50 values.
Assay Protocol Summary: 1,000 cells in 4 uL of media were dispensed into white, solid bottom 1536-well plates using a Multidrop Combi (Thermo Scientific). The Assay plates were incubated for 16 hours at 37 C with 5% CO2 in assay plates, followed by the addition of 23 nL of DMSO or drug dissolved in DMSO. . Each compound was assayed in 11 concentrations (1:3 dilution) from 57.5 uM to 0.977 nM, using the automated Wako 1536 Pin Tool workstation and incubated at 37 C with 5% CO2 48 hours. 4 uL of ATPlite, the ATP monitoring reagent, was then added to the each well of the assay plates using the Multidrop Combi reagent dispenser followed by incubation for 15 minutes at room temperature. The resulting luminescence was measured using the ViewLux plate reader.
On the % scale 0 is the no-effect control and ±100 the full control effect; potency means the concentration at half of the fitted maximal effect.

| SMILES | Potency | activity change, negative = viability loss |
| --- | --- | --- |
| CCN1CCN(C(=O)Cc2ccc(Nc3ncc(F)c(Nc4ccc(C(=O)Nc5ccccc5Cl)cc4)n3)cc2)CC1 | inconclusive: 38.5 µM [cytotoxic, single point] |  |
| CCC(=O)O[C@H]1CC[C@H]2[C@@H]3CCC4=CC(=O)CC[C@]4(C)[C@H]3CC[C@]12C | inconclusive: 30.6 µM [cytotoxic, partial curve] |  |
| O=C(O)Cc1ccccc1 |  | inactive: 11.7% |
| C[C@]12CC[C@H]3[C@@H](CCC4=CC(=O)CC[C@@H]43)[C@@H]1CC[C@@H]2OC(=O)CCc1ccccc1 |  | inactive: -4.23% |

From PubChem BioAssay AID1345085 (National Center for Advancing Translational Sciences (NCATS), 2018)
